# The other results are listed elsewhere or left out.
# The chains behind the UniProt entries cited, without tags or fusion partners. Where a name states a change or a piece, a line headed by the entry shows the natural chain unless it says otherwise.
# UniProt Q7Z4F1: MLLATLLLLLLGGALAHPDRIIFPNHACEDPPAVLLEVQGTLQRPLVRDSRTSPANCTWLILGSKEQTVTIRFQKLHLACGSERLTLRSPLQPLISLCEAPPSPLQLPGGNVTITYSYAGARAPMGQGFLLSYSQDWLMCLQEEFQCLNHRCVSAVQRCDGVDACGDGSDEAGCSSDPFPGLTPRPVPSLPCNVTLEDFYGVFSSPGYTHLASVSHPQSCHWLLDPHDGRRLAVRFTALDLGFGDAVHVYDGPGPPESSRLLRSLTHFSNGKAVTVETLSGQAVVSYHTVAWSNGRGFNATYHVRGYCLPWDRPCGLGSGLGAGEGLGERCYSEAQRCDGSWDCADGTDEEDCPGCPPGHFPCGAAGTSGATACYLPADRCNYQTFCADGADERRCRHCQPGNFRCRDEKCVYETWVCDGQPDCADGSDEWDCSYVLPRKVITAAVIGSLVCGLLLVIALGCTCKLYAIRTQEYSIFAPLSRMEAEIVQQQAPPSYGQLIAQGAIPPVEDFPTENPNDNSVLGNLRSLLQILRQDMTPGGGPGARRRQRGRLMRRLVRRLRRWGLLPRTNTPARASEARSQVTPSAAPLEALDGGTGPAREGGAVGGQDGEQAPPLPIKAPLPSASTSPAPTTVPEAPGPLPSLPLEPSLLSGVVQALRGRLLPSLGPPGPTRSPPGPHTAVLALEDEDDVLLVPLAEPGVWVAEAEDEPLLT
# UniProt Q96PV6, whole entry, looked up: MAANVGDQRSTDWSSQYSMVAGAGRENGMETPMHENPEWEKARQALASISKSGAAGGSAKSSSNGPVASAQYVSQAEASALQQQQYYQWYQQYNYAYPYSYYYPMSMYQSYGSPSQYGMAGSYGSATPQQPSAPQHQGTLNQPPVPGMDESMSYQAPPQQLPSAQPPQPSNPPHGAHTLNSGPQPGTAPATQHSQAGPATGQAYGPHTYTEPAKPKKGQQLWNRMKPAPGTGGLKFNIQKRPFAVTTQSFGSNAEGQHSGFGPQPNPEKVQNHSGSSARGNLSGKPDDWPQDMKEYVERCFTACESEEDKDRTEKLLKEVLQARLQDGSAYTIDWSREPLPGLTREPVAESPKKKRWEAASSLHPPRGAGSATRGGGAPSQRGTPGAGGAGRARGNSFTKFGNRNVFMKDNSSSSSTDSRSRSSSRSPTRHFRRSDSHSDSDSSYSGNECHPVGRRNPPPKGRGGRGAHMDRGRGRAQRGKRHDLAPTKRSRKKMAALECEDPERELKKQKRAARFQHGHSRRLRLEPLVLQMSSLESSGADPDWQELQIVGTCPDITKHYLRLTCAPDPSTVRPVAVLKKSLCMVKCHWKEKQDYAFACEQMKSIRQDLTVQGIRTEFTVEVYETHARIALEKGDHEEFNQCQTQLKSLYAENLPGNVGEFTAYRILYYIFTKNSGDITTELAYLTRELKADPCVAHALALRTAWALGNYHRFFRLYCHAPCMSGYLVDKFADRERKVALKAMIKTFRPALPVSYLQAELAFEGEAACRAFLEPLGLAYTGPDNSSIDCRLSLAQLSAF
# UniProt O00214: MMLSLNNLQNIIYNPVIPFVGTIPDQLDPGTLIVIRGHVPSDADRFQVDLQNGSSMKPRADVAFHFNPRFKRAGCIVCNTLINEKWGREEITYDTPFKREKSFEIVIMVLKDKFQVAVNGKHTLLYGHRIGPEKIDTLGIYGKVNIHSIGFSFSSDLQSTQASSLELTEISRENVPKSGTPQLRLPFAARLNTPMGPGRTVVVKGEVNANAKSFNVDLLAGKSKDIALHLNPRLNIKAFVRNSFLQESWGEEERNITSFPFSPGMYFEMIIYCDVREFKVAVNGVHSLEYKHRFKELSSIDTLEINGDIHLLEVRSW
# UniProt P53667: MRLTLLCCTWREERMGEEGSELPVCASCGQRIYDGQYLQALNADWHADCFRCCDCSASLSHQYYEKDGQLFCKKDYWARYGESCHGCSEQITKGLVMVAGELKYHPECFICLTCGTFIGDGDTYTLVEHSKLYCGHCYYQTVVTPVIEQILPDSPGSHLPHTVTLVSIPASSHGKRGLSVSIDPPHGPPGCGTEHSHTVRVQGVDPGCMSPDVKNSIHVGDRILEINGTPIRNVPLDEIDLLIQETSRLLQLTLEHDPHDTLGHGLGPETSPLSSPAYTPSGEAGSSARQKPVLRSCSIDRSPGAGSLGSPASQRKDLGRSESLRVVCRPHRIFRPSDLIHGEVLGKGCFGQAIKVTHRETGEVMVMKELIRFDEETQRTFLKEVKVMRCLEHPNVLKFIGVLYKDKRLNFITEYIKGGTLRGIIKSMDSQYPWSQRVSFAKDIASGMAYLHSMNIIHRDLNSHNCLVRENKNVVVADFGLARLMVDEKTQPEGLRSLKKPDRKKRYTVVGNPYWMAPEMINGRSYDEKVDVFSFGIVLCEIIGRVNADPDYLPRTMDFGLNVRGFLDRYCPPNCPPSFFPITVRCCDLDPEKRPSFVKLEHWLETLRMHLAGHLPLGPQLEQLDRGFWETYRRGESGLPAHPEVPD
# UniProt P06858: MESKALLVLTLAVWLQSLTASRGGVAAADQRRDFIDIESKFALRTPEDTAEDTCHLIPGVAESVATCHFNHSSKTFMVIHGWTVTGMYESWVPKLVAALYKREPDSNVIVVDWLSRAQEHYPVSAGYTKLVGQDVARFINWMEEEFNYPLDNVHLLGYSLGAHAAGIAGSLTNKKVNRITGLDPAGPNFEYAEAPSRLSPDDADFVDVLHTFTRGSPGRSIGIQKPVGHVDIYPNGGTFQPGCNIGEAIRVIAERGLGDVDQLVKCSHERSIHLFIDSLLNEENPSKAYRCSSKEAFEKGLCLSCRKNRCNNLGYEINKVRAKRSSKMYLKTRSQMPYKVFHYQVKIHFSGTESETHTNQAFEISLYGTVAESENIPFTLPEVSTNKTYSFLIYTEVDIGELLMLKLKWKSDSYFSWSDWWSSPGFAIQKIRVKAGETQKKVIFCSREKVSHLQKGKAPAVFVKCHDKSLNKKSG
# UniProt Q6P5S2: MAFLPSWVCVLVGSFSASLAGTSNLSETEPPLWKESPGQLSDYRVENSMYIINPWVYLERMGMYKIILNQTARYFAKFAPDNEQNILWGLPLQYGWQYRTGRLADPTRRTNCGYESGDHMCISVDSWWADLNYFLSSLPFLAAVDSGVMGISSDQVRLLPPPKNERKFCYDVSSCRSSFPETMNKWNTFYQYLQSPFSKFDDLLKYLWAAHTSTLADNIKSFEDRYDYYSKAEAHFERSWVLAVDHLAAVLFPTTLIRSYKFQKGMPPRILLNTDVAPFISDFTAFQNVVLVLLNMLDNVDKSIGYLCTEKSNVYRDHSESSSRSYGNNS
# UniProt Q9NUN5: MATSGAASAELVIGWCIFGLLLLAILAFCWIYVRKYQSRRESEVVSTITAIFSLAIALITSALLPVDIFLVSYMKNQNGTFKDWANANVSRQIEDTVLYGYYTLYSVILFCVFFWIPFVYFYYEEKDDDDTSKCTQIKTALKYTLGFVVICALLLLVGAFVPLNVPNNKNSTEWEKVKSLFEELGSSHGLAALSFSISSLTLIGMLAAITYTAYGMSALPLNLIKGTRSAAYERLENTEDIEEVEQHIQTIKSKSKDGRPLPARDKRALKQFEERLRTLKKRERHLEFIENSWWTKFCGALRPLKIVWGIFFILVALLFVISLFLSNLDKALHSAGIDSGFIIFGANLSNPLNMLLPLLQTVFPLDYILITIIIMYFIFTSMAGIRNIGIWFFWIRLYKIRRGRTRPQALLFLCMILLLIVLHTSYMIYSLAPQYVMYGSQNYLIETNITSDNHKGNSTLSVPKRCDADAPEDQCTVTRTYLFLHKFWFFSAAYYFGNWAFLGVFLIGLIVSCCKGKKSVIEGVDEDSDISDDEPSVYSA
# UniProt P49916: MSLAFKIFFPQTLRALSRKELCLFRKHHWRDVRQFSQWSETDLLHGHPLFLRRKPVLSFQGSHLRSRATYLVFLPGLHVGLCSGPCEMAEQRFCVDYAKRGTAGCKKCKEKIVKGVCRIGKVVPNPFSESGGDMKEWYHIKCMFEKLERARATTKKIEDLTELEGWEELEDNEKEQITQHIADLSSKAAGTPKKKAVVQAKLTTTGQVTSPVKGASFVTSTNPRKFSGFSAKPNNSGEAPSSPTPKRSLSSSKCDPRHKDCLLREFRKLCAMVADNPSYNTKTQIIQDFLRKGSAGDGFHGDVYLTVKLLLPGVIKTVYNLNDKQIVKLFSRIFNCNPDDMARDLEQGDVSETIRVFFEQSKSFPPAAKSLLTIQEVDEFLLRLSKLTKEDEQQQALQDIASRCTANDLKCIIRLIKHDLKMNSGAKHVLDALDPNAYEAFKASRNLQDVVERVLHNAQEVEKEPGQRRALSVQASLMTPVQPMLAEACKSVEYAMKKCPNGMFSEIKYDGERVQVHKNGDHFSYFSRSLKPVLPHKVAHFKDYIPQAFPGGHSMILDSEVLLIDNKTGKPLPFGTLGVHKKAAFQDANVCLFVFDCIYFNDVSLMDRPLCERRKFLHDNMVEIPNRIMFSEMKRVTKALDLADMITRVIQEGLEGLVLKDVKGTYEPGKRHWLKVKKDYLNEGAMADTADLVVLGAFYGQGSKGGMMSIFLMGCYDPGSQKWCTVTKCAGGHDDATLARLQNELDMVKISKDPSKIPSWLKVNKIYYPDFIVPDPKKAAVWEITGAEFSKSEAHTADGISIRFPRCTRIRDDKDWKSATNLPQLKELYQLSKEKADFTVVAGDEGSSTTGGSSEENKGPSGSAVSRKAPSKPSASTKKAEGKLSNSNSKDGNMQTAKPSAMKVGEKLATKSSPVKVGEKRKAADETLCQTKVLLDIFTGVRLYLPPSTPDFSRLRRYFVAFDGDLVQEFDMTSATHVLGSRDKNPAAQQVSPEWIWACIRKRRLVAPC
# UniProt P02545: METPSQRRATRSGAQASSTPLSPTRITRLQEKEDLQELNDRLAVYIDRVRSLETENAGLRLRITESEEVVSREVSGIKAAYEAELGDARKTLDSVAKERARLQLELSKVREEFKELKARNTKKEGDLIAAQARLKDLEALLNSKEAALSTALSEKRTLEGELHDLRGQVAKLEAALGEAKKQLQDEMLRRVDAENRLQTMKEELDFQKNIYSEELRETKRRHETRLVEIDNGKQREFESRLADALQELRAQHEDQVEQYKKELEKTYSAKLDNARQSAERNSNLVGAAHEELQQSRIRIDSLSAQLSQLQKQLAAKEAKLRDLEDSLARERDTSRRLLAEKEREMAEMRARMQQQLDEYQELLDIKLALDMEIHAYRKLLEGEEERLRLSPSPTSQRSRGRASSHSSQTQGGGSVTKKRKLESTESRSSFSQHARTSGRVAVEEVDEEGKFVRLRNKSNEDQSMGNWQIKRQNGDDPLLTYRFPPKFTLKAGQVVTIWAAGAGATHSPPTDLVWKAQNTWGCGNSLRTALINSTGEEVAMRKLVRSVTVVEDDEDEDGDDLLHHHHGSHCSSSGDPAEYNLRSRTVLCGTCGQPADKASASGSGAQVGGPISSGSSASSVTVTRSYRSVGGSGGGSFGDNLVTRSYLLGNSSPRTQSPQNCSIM
# Columns and labels:
# Assay in all cases: log2 fold change, soluble protein after heating vs DMSO (PISA); higher = thermal stabilisation; K562 cells, 10 uM, 30 min; active = over 0.2 and 3.5 SD of the protein, either way, in both replicates (recomputed)
# [1] = compound: CC1=C(C=C(C=C1)NC(=O)C2=CC(=CC=C2)C(C)(C)C#N)NC3=CC4=C(C=C3)N=CN(C4=O)C
# Outline: (§1)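 Values are thermal stability changes relative to control samples and are taken from duplicates. They are stated as log2 fold changes. Before quantification by TMTpro 16plex LC-MS/MS with equalised channel sums, K562 cells at 2×10^6 cells/mL were treated with 10 μM compound for 30 min, heated in aliquots for 3 min across 48°C-58°C, pooled, extracted in PBS with 0.5% NP-40 at 4°C, and centrifuged at 21,000xg for 90 min to give the soluble supernatant.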
# [2] = compound: CC1=C(C=C(C=C1)NC(=O)C2=CC(=CC=C2)N(C)C)NC(=O)C3=CC=C(C=C3)O
# Outline: as §1
# [3] = compound: CC1=CC=C(C=C1)SC2=C3C=C(SC3=CN=C2)C(=O)N
# Outline: as §1
# [4] = compound: CC1=NC(=CC=C1)C2=C(N=C(N2)C(C)(C)C)C3=CC4=NC=CN=C4C=C3
# Outline: as §1
# [5] = compound: CCCCN(Cc1ccc(C(=O)NO)cc1)C(=O)Nc1ccccc1 [Nexturastat A]
# Outline: as §1
# [6] = compound: CCCS(=O)(=O)Nc1ccc(F)c(C(=O)c2c[nH]c3ncc(Cl)cc23)c1F
# Outline: as §1
# [7] = compound: CCCc1cc(C)[nH]c(=O)c1CNC(=O)c1cc(-c2ccnc(N3CCN(C)CC3)c2)cc2c1cnn2C(C)C
# Outline: as §1
# [8] = compound: CCN(CCCOc1ccc2c(Nc3cc(CC(=O)Nc4cccc(F)c4)[nH]n3)ncnc2c1)CCOP(=O)(O)O [barasertib]
# Outline: as §1
# [9] = compound: CC[C@@H]1C(=O)N(C)c2cnc(Nc3ccc(C(=O)N[C@H]4CC[C@H](N5CCN(CC6CC6)CC5)CC4)cc3OC)nc2N1C(C)C [volasertib]
# Outline: as §1
# [10] = compound: CC[C@H](C)N1C=C(C2=C(C=C(C=C21)C3=CN=C(C=C3)N4CCNCC4)C(=O)NCC5=C(C=C(NC5=O)C)C)C
# Outline: as §1
# [11] = compound: CC[C@H](C)[C@@H](C(=O)N[C@@H]([C@@H](C)O)C(=O)N[C@@H](CC(C)C)C(=O)[C@]1(CO1)C)NC(=O)[C@H]([C@@H](C)CC)N(C)C(=O)C [epoxomicin]
# Outline: as §1
# [12] = compound: CN(CCOC1=CC=C(C=C1)C[C@H]2C(=O)NC(=O)S2)C3=CC=CC=N3 (racemic) [rosiglitazone]
# Outline: as §1
# [13] = compound: CN1C2=C(C3=C1C(=O)N(N=C3)CC4=CC(=CC=C4)N)SC(=C2)S(=O)C
# Outline: as §1
# [14] = compound: CCCS(=O)(=O)Nc1ccc(F)c(C(=O)c2c[nH]c3ncc(-c4ccc(Cl)cc4)cc23)c1F [vemurafenib]
# Outline: as §1
# [15] = compound: CCN(CC)Cc1ccc2cc(COC(=O)Nc3ccc(C(=O)NO)cc3)ccc2c1 [givinostat]
# Outline: as §1
# [16] = compound: CC[C@@H]1C(=O)N(C)c2cnc(Nc3ccc(C(=O)NC4CCN(C)CC4)cc3OC)nc2N1C1CCCC1
# Outline: as §1
# [17] = compound: CCn1cc(-c2ccnc3[nH]c(-c4cccc(CN(C)C)c4)cc23)c(-c2ccc(NC(=O)N(C)C)cc2)n1
# Outline: as §1
# [18] = compound: CN(C)CC(=O)Nc1ccc2[nH]c(=O)c3ccccc3c2c1
# Outline: as §1
# [19] = compound: CN1CCC(CNc2ccc3ncc(-c4cccc(OC(F)(F)F)c4)n3n2)CC1
# Outline: as §1
# [20] = compound: CCn1c(C(=O)N(C2CC2)C2CC2)cc2c3c(ncn3C)c(Nc3cc(C)n(C)n3)nc21
# Outline: as §1
Target,log2 fold change [1],log2 fold change [2],log2 fold change [3],log2 fold change [4],log2 fold change [5],log2 fold change [6],log2 fold change [7],log2 fold change [8],log2 fold change [9],log2 fold change [10],log2 fold change [11],log2 fold change [12],log2 fold change [13],log2 fold change [14],log2 fold change [15],log2 fold change [16],log2 fold change [17],log2 fold change [18],log2 fold change [19],log2 fold change [20]
LRP10 (UniProt Q7Z4F1),inactive: -0.16,inactive: -0.38,inactive: 0.036,inactive: -0.054,inactive: 0.123,inactive: 0,inactive: -0.253,inactive: -0.058,inactive: -0.056,inactive: 0.05,inactive: 0.075,inactive: 0.029,inactive: 0.018,–,–,–,–,–,–,–
LENG8 (UniProt Q96PV6),inactive: 0.112,inactive: -0.201,–,inactive: 0.009,inactive: -0.139,–,inactive: 0.066,inactive: 0.173,–,inactive: -0.009,inactive: 0.101,–,inactive: -0.225,inactive: 0.146,inactive: 0.09,inactive: -0.029,inactive: 0.073,inactive: 0.065,inactive: -0.238,–
LGALS8 isoform 2 (UniProt O00214),inactive: 0.01,–,–,inactive: -0.228,inactive: 0.288,–,inactive: -0.062,inactive: 0.13,–,–,inactive: -0.05,–,inactive: 0.328,inactive: -0.013,inactive: 0.072,inactive: 0.19,inactive: -0.121,inactive: 0.067,active: 0.93,–
LIMK1 (UniProt P53667),inactive: 0.041,–,inactive: -0.108,inactive: -0.115,inactive: 0.166,inactive: 0.359,–,inactive: 0.025,inactive: -0.209,–,inactive: -0.3,inactive: 0.091,–,–,–,–,–,–,–,–
LPL (UniProt P06858),inactive: 0.011,–,inactive: -0.047,inactive: 0.046,–,inactive: -0.122,inactive: -0.229,–,inactive: 0.006,–,–,–,inactive: -0.003,inactive: -0.141,inactive: 0.049,inactive: 0.289,inactive: 0.041,inactive: -0.093,inactive: 0.085,inactive: -0.188
LEG1 (UniProt Q6P5S2),inactive: -0.234,–,inactive: 0.167,–,–,inactive: -0.269,inactive: -0.46,inactive: 0.075,inactive: -0.763,inactive: 0.079,–,inactive: -0.001,inactive: -0.229,inactive: 0.304,–,–,inactive: -0.085,inactive: 0.19,inactive: -0.042,–
LMBRD1 (UniProt Q9NUN5),inactive: 0.073,inactive: 0.02,inactive: 0.023,–,inactive: -0.034,inactive: -0.057,inactive: -0.077,inactive: -0.039,inactive: 0.032,inactive: 0.015,inactive: 0.065,–,inactive: 0.133,inactive: -0.101,inactive: 0.05,inactive: -0.073,inactive: -0.015,inactive: 0.015,inactive: -0.351,–
LIG3 (UniProt P49916),inactive: -0.053,–,inactive: 0.006,–,–,inactive: -0.165,inactive: -0.162,–,inactive: 0.012,inactive: -0.197,–,–,inactive: -0.037,–,inactive: 0.416,–,inactive: -0.134,–,inactive: -0.175,inactive: -0.393
LMNA (UniProt P02545),inactive: -0.023,inactive: 0.095,inactive: -0.026,inactive: -0.002,inactive: -0.022,inactive: 0.014,inactive: -0.027,inactive: -0.004,inactive: -0.15,inactive: 0.01,inactive: -0.014,–,inactive: -0.006,inactive: 0.088,inactive: 0.014,inactive: 0.008,inactive: 0.057,inactive: 0.009,inactive: 0,–

# Record cards, as listed above. Values in the order: log2 fold change [1] | log2 fold change [2] | log2 fold change [3] | log2 fold change [4] | log2 fold change [5] | log2 fold change [6] | log2 fold change [7] | log2 fold change [8] | log2 fold change [9] | log2 fold change [10] | log2 fold change [11] | log2 fold change [12] | log2 fold change [13] | log2 fold change [14] | log2 fold change [15] | log2 fold change [16] | log2 fold change [17] | log2 fold change [18] | log2 fold change [19] | log2 fold change [20]
# LGALS8 isoform 2 (UniProt O00214) as listed: inactive: 0.01 | – | – | inactive: -0.228 | inactive: 0.288 | – | inactive: -0.062 | inactive: 0.13 | – | – | inactive: -0.05 | – | inactive: 0.328 | inactive: -0.013 | inactive: 0.072 | inactive: 0.19 | inactive: -0.121 | inactive: 0.067 | active: 0.93 | –
# LEG1 (UniProt Q6P5S2) as listed: inactive: -0.234 | – | inactive: 0.167 | – | – | inactive: -0.269 | inactive: -0.46 | inactive: 0.075 | inactive: -0.763 | inactive: 0.079 | – | inactive: -0.001 | inactive: -0.229 | inactive: 0.304 | – | – | inactive: -0.085 | inactive: 0.19 | inactive: -0.042 | –
